According to patent publication US8039514B2, “Sulfonamide compounds and use thereof” (Asahi Kasei Pharma Corporation, priority 2008, dated 2011):
Some of these results come from one statement about several compounds together.

Target: T1, human calcium-sensing receptor (CaSR) (Homo sapiens, UniProt P41180)
T1 construct: expressed in transfected cells
T1 sequence (P41180 20-1078): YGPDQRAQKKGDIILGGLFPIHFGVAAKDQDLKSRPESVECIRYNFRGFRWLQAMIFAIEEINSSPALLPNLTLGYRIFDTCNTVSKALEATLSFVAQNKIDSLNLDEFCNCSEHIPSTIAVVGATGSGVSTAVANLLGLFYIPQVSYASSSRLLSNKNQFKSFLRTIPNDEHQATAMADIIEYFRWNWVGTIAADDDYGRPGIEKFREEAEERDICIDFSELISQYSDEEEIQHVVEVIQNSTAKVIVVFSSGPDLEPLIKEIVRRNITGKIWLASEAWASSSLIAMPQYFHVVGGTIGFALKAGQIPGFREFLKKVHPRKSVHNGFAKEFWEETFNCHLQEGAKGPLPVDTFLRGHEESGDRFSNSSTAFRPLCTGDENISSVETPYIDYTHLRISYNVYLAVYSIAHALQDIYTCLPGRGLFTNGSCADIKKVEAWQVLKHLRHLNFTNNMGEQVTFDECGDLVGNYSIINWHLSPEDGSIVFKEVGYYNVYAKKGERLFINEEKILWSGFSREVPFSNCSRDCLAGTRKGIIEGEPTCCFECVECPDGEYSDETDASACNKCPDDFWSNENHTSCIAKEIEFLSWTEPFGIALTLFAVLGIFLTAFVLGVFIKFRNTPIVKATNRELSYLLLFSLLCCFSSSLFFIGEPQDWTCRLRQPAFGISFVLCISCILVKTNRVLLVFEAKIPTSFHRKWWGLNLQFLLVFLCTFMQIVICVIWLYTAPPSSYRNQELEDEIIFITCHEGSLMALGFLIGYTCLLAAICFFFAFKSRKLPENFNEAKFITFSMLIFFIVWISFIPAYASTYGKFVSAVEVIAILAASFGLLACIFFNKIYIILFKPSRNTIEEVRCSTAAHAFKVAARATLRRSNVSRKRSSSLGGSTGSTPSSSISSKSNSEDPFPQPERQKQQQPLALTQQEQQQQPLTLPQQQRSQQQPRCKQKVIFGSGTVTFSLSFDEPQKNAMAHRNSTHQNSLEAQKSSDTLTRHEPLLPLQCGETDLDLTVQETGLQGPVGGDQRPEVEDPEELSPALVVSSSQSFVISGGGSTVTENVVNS
Experiment: intracellular Ca assay, CaSR antagonist activity in HEK293/hCaSR cells
Type: cell-based
Settings: Fura2-AM, inhibition of response to calcium chloride ligand solution
Protocol: HEK293 cells stably expressing human calcium-sensing receptor (CaSR) (termed HEK293/hCaSR cells) were used. HEK293/hCaSR cells were cultured in a culture medium [DMEM medium containing 0.5 mg/mL Geneticin, 50 Unit/mL penicillin, 50 μg/mL streptomycin and 10% fetal bovine serum (FBS), all manufactured by Invitrogen] to semiconfluent in an incubator at 37° C. under 5% carbon dioxide atmosphere.
Cultured cells were washed with phosphate buffered saline (PBS(−), manufactured by Dainippon Sumitomo Pharmaceutical Company) which had been prewarmed to 37° C., added with PBS(−) containing 10 mM ethylenediamine tetraacetic acid (EDTA), and then incubated in an incubator at 37° C. for 10 minutes. After adding the culture medium to separate the cells, cell suspension was transferred to a centrifuge tube. Cells were collected by centrifuge at 1,500 rpm for 3 minutes, and resuspended in Ca assay buffer [20 mM HEPES buffer (pH 7.4), 115 mM sodium chloride, 5.4 mM potassium chloride, 0.8 mM magnesium chloride, 0.8 mM calcium chloride, 13.8 mM D(+)-glucose (all manufactured by Wako Pure Chemicals) and 0.1% bovine serum albumin (manufactured by SIGMA)] containing 0.2% Pluronic F-127 (manufactured by Molecular Probes) and […] Fura2-AM (manufactured by DOJINDO LABORATORIES) to obtain a cell suspension of 5×10^6 cells/mL. After incubating at 37° C. for 30 minutes, the cells were washed twice with the Ca assay buffer and suspended in the same buffer to obtain a cell suspension of 1×10^6 cells/60 μL. 60 μL of the cell suspension was aliquoted to each well of a 96 well UV microplate (manufactured by Corning Co.) to give a cell plate.
The test compound was diluted with the Ca assay buffer to five times the final concentration and then 80 μL of the diluted compound was applied to each well of a 96 well round bottomed microplate (manufactured by Corning Co.) to give a sample plate. 80 μL of the Ca assay buffer containing 7.5 mM calcium chloride (i.e., ligand solution) was applied to each well of a 96 well round bottomed microplate to give a ligand plate. Then, thus prepared sample plate, ligand plate, and the cell plate were placed in Functional Drug Screening System (FDSS) 4000 (manufactured by Hamamatsu Photonics K.K.) which had been preswitched on and prewarmed to 37° C. Measurements were then carried out as follows. After incubating the cell plate for 180 seconds, fluorescence intensity was measured every two seconds (excitation wavelength; 340 nm and 380 nm, measurement wavelength; 500 nm). After the measurement for 40 seconds, 20 μL of the test compound solution from the sample plate was added to the cell plate, followed by continuous measurement for 160 seconds. Then, 20 μL of the ligand solution from the ligand plate was added to the cell plate, followed by continuous measurement for 100 seconds.
Amount of change in intracellular Ca concentration is indicated as a peak height of the ratio of the fluorescence intensity with excitation of 340 nm and 380 nm (i.e., fluorescence intensity with excitation at 340 nm/fluorescence intensity with excitation at 380 nm) that is obtained from the difference between the maximum ratio after adding the ligand solution and the ratio before adding the ligand solution. Further, when the peak height obtained from the Ca assay buffer containing no test compound has inhibition ratio of 0% while the peak height obtained from the Ca assay buffer containing no calcium chloride as a ligand solution has inhibition ratio of 100%, inhibition ratio for each test compound (i.e., CaSR antagonist activity) was calculated.

Row | Compound | IC50 values according to the intracellular Ca assay (CaSR antagonist activity) [μM]
1 | COc1ccc(-c2cccc(CC(=O)O)c2)cc1S(=O)(=O)N(C)C[C@H](O)CNC(C)(C)CC1Cc2ccccc2C1 [Exp. 3-153, (R)-2-(3′-(N-(3-(1-(2,3-dihydro-1H-inden-2-yl)-2-methylpropan-2-ylamino)-2-hydroxypropyl)-N-methylsulfamoyl)-4′-methoxybiphenyl-3-yl)acetic acid] | 3.0 to 1.0
2 | CN(C[C@H](O)CNC(C)(C)CC1Cc2ccccc2C1)S(=O)(=O)c1cncc(-c2cccc(CC(=O)O)c2)c1 [Exp. 3-155, (R)-2-(3-(5-(N-(3-(1-(2,3-dihydro-1H-inden-2-yl)-2-methylpropan-2-ylamino)-2-hydroxypropyl)-N-methylsulfamoyl)pyridin-3-yl)phenyl)acetic acid] | 3.0 to 1.0
3 | CN(C[C@H](O)CNC(C)(C)CC1Cc2ccccc2C1)S(=O)(=O)c1ccc(-c2cccc(CC(=O)O)c2)cc1 [Exp. 3-156, (R)-2-(4′-(N-(3-(1-(2,3-dihydro-1H-inden-2-yl)-2-methylpropan-2-ylamino)-2-hydroxypropyl)-N-methylsulfamoyl)biphenyl-3-yl)acetic acid] | 3.0 to 1.0
4 | COc1ccc(-c2cc(C(F)(F)F)cc(S(=O)(=O)N(C)C[C@H](O)CNC(C)(C)CC3Cc4ccccc4C3)c2)cc1C=CC(=O)O [Exp. 3-157, (R)-3-(3′-(N-(3-(1-(2,3-dihydro-1H-inden-2-yl)-2-methylpropan-2-ylamino)-2-hydroxypropyl)-N-methylsulfamoyl)-4-methoxy-5′-(trifluoromethyl)biphenyl-3-yl)acrylic acid] | 1.0 to 0.3
5 | CN(C[C@H](O)CNC(C)(C)CC1Cc2ccccc2C1)S(=O)(=O)c1ccc(-c2cccc(CCC(=O)O)c2)cc1 [Exp. 3-165, (R)-3-(4′-(N-(3-(1-(2,3-dihydro-1H-inden-2-yl)-2-methylpropan-2-ylamino)-2-hydroxypropyl)-N-methylsulfamoyl)biphenyl-3-yl)propionic acid] | 3.0 to 1.0
6 | CN(C[C@H](O)CNC(C)(C)CC1Cc2ccccc2C1)S(=O)(=O)c1ccc(-c2cccc(CCC(=O)O)c2)cc1C(F)(F)F [Exp. 3-166, (R)-3-(4′-(N-(3-(1-(2,3-dihydro-1H-inden-2-yl)-2-methylpropan-2-ylamino)-2-hydroxypropyl)-N-methylsulfamoyl)-3′-(trifluoromethyl)biphenyl-3-yl)propionic acid] | 1.0 to 0.3
7 | CN(C[C@H](O)CNC(C)(C)CC1Cc2ccccc2C1)S(=O)(=O)c1cncc(-c2cccc(CCC(=O)O)c2)c1 [Exp. 3-177, (R)-3-(3-(5-(N-(3-(1-(2,3-dihydro-1H-inden-2-yl)-2-methylpropan-2-ylamino)-2-hydroxypropyl)-N-methylsulfamoyl)pyridin-3-yl)phenyl)propionic acid] | 3.0 to 1.0
8 | CN(C[C@H](O)CNC(C)(C)CC1Cc2ccccc2C1)S(=O)(=O)c1ccc(-c2cccc(CCC(=O)O)c2)c(F)c1 [Exp. 3-179, (R)-3-(4′-(N-(3-(1-(2,3-dihydro-1H-inden-2-yl)-2-methylpropan-2-ylamino)-2-hydroxypropyl)-N-methylsulfamoyl)-2′-fluorobiphenyl-3-yl)propionic acid] | 1.0 to 0.3
9 | CN(C[C@H](O)CNC(C)(C)CCCc1ccccc1)S(=O)(=O)c1ccc(C(F)(F)F)cc1-c1cccc(CCC(=O)O)c1 [Exp. 3-183, (R)-3-(2′-(N-(2-hydroxy-3-(2-methyl-5-phenylpentan-2-ylamino)propyl)-N-methylsulfamoyl)-5′-(trifluoromethyl)biphenyl-3-yl)propionic acid] | 3.0 to 1.0
10 | Cc1cc(S(=O)(=O)N(C)C[C@H](O)CNC(C)(C)CCCc2ccccc2)ccc1-c1cccc(CCC(=O)O)c1 [Exp. 3-186, (R)-3-(4′-(N-(2-hydroxy-3-(2-methyl-5-phenylpentan-2-ylamino)propyl)-N-methylsulfamoyl)-2′-methylbiphenyl-3-yl)propionic acid] | 1.0 to 0.3
11 | CN(C[C@H](O)CNC(C)(C)CC1Cc2ccccc2C1)S(=O)(=O)c1cc(F)c(-c2ccccc2CCC(=O)O)cc1F [Exp. 3-189, (R)-3-(4′-(N-(3-(1-(2,3-dihydro-1H-inden-2-yl)-2-methylpropan-2-ylamino)-2-hydroxypropyl)-N-methylsulfamoyl)-2′,5′-difluorobiphenyl-2-yl)propionic acid] | 3.0 to 1.0
12 | Cc1cc(S(=O)(=O)N(C)C[C@H](O)CNC(C)(C)CCCc2ccccc2)ccc1-c1ccccc1CCC(=O)O [Exp. 3-191, (R)-3-(4′-(N-(2-hydroxy-3-(2-methyl-5-phenylpentan-2-ylamino)propyl)-N-methylsulfamoyl)-2′-methylbiphenyl-2-yl)propionic acid] | 3.0 to 1.0
13 | CCc1cc(-c2ccccc2CCC(=O)O)ccc1S(=O)(=O)N(C)C[C@H](O)CNC(C)(C)CCCc1ccccc1 [Exp. 3-192, (R)-3-(3′-ethyl-4′-(N-(2-hydroxy-3-(2-methyl-5-phenylpentan-2-ylamino)propyl)-N-methylsulfamoyl)biphenyl-2-yl)propionic acid] | 3.0 to 1.0
14 | COc1ccc(-c2ccc(F)c(C(=O)O)c2)cc1S(=O)(=O)N(C)C[C@H](O)CNC(C)(C)CC1Cc2ccccc2C1 [Exp. 3-194, (R)-3′-(N-(3-(1-(2,3-dihydro-1H-inden-2-yl)-2-methylpropan-2-ylamino)-2-hydroxypropyl)-N-methylsulfamoyl)-4-fluoro-4′-methoxybiphenyl-3-carboxylic acid] | 3.0 to 1.0
15 | CN(C[C@H](O)CNC(C)(C)CC1Cc2ccccc2C1)S(=O)(=O)c1ccc(-c2ccc(F)c(C(=O)O)c2)cc1 [Exp. 3-195, (R)-4′-(N-(3-(1-(2,3-dihydro-1H-inden-2-yl)-2-methylpropan-2-ylamino)-2-hydroxypropyl)-N-methylsulfamoyl)-4-fluorobiphenyl-3-carboxylic acid] | 1.0 to 0.3
